Data source: PubChem BioAssay AID504791 (Drosophila RNAi Screening Center, 2011)
Screen: 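Factors in Argonaute-based small RNA production and activity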 (primary screen). Cell system: Drosophila S2-derived reporter cells. Knock-down reagent: long dsRNA against Drosophila genes, about 150-250 ng dsRNA per well (siRNA assay); about 80-120 ng (miRNA assay). Time to read-out: about 5 days (siRNA assay); about 4 days (miRNA assay). Challenge: copper sulfate induction of reporters: 25 µM (siRNA assay); 200 mM stated (miRNA assay), 1-2 days before reading. Measurement: 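Per-well ratio of Renilla over firefly light, expressed relative to that plate's average ratio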. Direction: siRNA reporter hit score: higher = 3 marks a strong hit with raised ratio; -3 a strong hit with lowered ratio. Hit rule: 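a well was a first-pass pick when its plate-scaled ratio rose above 1.5 (siRNA assay) or 1.6 (miRNA assay), or dropped below 0.6; a gene counted only if two separate dsRNAs agreed on retest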.
The deposit covers about 23,000 reagents; below is an unselected part of those with a known target gene and a result. Over the whole deposit, 199 (0.86%) are marked active. 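Plate-scaled ratios behind the calls are not deposited; printed light signals are raw; many rows marked increased or decreased are still called inactive.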

no.	gene	dsRNA	siRNA reporter hit score	miRNA reporter change	stable assay Renilla, run 1 (luminescence)	stable assay firefly, run 1 (luminescence)	activity call
1	Galphaf (G protein alpha subunit f)	DRSC11171			6886	3.08e5	inactive
2	CG5026	DRSC10470			8662	4.26e5	inactive
3	CG1394	DRSC19539			4184	2.53e5	inactive
4	IntS4 (Integrator 4)	DRSC17810	-3		17543	1.11e6	inactive
5	CG13760	DRSC18617			6660	3.99e5	inactive
6	Lint-O (L(3)mbt interactor in ovarian somatic cells)	DRSC18468			5220	3.29e5	inactive
7	IM33 (Immune induced molecule 33)	DRSC00476			8001	5.18e5	inactive
8	CAH14 (Carbonic anhydrase 14)	DRSC04234			6299	3.34e5	inactive
9	CAH14 (Carbonic anhydrase 14)	DRSC22160			8995	5.06e5	inactive
10	CG10338	DRSC02039			7598	6.41e5	inactive
11	CG13928	DRSC08397			6975	3.48e5	inactive
12	Hyccin	DRSC06983			7279	3.20e5	inactive
13	Lcp65Af	DRSC11213			5818	4.97e5	inactive
14	CG30383	DRSC05062			6007	4.26e5	inactive

The list goes on, starting with the last 3 of the part before.
no.	gene	dsRNA	siRNA reporter hit score	miRNA reporter change	stable assay Renilla, run 1 (luminescence)	stable assay firefly, run 1 (luminescence)	activity call
12	Hyccin	DRSC06983			7279	3.20e5	inactive
13	Lcp65Af	DRSC11213			5818	4.97e5	inactive
14	CG30383	DRSC05062			6007	4.26e5	inactive
15	ATPsynD (ATP synthase, subunit D)	DRSC14093			7711	3.88e5	inactive
16	Myo95E (Myosin 95E)	DRSC15821			11083	3.49e5	inactive
17	Bub3	DRSC14168			8508	4.71e5	inactive
18	GIIIspla2 (Phospholipase A2 group III)	DRSC18094			8187	5.87e5	inactive
19	CG6980	DRSC16162			7030	3.39e5	inactive
20	gammaCOP (Coat Protein (coatomer) gamma)	DRSC16955		reporter ratio raised past the hit cutoff	4276	2.12e5	inactive
21	CG6665	DRSC07006			10289	3.39e5	inactive
22	app (approximated)	DRSC09159			4934	2.98e5	inactive
23	app (approximated)	DRSC10246			7063	4.42e5	inactive
24	app (approximated)	DRSC10526			6612	4.03e5	inactive
25	CG5808	DRSC14124			8158	3.73e5	inactive
26	CSN6 (COP9 signalosome subunit 6)	DRSC16593			4167	3.28e5	inactive
27	Pka-C2 (Protein kinase, cAMP-dependent, catalytic subunit 2)	DRSC16790			6620	3.96e5	inactive
28	Pka-C2 (Protein kinase, cAMP-dependent, catalytic subunit 2)	DRSC23310			4239	3.79e5	inactive
29	CG14694	DRSC14917			6700	3.50e5	inactive
30	ouib (ouija board)	DRSC14376			6867	4.26e5	inactive
31	CG6933	DRSC10751			8811	3.73e5	inactive
32	CG18467	DRSC06758			7543	4.48e5	inactive
33	CG9171	DRSC03152			37259	5.28e5	inactive
34	CG9171	DRSC21813			8963	4.12e5	inactive
